According to the supplement of paper PMC12067093, “Discovery and optimisation of a covalent ligand for TRIM25 and its application to targeted protein ubiquitination” (Chemical Science, 2025):
This is one part of the list.

Chains of the proteins cited; added tags and fusions are not shown. Lines headed by an entry give the natural chain unless they say otherwise; changes in a name come on top.
UniProt Q15326: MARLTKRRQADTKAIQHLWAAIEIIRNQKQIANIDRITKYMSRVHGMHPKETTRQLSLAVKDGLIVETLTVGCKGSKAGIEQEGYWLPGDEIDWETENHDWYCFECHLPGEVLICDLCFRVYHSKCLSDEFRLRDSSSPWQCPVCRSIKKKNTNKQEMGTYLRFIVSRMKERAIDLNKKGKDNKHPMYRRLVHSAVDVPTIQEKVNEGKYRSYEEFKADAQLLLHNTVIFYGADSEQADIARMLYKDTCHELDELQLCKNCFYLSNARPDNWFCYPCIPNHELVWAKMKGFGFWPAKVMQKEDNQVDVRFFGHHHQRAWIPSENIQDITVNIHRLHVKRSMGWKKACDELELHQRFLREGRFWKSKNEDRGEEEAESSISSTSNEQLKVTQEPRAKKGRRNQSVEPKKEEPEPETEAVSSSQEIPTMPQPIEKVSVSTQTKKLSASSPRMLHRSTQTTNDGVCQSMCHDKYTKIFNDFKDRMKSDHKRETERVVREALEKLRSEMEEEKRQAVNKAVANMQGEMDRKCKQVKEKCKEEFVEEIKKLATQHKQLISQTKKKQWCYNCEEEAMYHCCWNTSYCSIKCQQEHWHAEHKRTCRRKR
UniProt Q9ULU4: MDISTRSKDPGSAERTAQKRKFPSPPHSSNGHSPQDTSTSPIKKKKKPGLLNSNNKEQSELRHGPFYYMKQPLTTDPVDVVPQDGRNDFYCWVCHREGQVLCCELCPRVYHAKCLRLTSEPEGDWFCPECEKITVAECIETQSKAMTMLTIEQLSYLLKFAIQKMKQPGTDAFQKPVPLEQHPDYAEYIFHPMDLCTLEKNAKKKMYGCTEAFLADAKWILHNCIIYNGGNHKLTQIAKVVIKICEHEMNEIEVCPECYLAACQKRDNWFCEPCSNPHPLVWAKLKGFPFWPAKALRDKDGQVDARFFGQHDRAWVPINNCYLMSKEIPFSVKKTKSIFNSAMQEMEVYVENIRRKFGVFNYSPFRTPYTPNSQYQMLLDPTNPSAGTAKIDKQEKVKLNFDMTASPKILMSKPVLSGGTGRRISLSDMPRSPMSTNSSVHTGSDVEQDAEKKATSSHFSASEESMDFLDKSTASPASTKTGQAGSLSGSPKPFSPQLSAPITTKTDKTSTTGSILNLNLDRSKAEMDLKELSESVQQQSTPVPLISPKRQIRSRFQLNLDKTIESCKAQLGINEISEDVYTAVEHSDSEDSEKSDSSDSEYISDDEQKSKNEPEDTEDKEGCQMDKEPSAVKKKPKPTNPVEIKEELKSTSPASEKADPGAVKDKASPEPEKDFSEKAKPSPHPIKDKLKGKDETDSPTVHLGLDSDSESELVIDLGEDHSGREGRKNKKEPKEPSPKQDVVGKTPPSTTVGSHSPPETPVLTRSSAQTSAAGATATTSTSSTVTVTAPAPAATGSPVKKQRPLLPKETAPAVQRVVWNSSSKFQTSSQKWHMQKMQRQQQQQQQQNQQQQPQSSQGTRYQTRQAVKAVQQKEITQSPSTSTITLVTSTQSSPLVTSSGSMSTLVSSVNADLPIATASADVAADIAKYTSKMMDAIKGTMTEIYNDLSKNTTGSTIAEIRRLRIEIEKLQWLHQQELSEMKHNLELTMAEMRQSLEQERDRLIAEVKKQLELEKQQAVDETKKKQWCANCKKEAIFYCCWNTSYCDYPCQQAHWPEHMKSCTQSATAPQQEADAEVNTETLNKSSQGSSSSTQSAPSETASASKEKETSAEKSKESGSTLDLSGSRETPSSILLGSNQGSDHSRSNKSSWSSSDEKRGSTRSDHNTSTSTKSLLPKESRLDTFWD
UniProt Q14966: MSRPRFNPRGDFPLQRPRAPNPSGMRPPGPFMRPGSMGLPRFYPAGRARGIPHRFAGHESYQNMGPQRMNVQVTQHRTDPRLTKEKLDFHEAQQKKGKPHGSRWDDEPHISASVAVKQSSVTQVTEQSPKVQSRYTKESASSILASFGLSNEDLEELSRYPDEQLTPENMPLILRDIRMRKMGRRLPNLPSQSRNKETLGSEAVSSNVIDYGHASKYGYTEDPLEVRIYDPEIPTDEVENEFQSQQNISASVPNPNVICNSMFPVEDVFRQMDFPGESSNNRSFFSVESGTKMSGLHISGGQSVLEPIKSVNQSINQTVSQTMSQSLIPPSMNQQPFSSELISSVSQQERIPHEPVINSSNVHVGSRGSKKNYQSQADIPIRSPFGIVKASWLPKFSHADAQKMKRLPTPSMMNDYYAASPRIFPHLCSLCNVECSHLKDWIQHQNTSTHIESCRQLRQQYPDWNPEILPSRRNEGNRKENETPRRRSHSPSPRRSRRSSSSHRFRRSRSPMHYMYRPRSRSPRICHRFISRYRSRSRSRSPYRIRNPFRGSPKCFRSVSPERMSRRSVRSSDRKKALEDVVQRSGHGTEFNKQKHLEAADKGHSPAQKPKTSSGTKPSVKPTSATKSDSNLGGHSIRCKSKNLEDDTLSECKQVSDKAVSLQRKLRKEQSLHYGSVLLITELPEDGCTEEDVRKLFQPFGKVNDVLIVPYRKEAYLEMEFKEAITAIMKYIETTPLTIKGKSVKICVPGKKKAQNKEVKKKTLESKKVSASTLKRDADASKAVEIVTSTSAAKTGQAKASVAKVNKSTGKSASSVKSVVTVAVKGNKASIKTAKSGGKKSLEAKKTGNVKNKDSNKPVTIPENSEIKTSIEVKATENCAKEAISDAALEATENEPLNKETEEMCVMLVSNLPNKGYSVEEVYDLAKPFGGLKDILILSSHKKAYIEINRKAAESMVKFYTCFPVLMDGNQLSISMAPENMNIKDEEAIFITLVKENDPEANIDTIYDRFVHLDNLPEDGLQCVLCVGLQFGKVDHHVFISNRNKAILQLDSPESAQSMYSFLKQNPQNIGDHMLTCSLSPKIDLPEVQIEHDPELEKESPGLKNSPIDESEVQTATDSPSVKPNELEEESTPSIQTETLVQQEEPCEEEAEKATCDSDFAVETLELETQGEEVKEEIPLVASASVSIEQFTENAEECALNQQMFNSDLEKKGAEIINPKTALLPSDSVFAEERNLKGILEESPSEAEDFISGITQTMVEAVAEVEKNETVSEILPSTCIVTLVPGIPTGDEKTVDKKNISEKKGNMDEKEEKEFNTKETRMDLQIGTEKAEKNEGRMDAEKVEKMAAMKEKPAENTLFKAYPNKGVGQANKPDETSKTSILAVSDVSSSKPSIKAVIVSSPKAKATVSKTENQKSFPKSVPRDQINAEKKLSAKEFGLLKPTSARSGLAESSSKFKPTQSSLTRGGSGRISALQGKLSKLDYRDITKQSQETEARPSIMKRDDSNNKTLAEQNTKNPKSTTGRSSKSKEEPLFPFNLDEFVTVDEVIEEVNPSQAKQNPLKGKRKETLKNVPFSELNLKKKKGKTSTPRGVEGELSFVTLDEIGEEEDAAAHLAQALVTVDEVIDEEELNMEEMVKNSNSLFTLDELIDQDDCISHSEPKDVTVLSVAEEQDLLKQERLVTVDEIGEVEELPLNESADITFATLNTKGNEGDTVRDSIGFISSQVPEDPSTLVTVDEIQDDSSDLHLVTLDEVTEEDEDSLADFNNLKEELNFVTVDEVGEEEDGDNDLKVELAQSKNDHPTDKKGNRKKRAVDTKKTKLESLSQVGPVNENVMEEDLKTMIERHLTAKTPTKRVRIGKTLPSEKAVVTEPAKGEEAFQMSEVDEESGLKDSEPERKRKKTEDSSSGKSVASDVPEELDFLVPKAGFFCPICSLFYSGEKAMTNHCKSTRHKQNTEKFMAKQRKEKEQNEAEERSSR
UniProt O95159: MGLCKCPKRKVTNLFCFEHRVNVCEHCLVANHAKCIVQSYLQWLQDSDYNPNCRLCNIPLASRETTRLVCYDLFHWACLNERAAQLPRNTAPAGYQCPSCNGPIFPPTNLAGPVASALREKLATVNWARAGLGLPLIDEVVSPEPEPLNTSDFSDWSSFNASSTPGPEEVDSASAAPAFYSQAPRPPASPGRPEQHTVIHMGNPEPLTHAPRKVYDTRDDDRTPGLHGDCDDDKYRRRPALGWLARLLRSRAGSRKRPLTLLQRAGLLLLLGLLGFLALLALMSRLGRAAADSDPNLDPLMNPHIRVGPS
UniProt O75844: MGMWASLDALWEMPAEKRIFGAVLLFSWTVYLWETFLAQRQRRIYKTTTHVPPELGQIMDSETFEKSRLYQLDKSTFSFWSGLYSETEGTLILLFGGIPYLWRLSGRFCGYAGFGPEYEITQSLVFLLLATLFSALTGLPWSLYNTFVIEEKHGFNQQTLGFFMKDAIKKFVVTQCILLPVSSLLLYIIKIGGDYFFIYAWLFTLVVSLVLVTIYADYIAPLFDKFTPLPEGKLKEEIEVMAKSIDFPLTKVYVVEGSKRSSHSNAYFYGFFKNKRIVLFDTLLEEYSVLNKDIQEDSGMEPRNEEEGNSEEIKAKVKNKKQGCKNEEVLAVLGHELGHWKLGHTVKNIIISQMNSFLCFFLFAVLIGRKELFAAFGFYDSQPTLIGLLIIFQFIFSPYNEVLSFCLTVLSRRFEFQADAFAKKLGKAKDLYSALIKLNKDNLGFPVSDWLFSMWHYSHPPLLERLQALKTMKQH
UniProt Q9H2Y7: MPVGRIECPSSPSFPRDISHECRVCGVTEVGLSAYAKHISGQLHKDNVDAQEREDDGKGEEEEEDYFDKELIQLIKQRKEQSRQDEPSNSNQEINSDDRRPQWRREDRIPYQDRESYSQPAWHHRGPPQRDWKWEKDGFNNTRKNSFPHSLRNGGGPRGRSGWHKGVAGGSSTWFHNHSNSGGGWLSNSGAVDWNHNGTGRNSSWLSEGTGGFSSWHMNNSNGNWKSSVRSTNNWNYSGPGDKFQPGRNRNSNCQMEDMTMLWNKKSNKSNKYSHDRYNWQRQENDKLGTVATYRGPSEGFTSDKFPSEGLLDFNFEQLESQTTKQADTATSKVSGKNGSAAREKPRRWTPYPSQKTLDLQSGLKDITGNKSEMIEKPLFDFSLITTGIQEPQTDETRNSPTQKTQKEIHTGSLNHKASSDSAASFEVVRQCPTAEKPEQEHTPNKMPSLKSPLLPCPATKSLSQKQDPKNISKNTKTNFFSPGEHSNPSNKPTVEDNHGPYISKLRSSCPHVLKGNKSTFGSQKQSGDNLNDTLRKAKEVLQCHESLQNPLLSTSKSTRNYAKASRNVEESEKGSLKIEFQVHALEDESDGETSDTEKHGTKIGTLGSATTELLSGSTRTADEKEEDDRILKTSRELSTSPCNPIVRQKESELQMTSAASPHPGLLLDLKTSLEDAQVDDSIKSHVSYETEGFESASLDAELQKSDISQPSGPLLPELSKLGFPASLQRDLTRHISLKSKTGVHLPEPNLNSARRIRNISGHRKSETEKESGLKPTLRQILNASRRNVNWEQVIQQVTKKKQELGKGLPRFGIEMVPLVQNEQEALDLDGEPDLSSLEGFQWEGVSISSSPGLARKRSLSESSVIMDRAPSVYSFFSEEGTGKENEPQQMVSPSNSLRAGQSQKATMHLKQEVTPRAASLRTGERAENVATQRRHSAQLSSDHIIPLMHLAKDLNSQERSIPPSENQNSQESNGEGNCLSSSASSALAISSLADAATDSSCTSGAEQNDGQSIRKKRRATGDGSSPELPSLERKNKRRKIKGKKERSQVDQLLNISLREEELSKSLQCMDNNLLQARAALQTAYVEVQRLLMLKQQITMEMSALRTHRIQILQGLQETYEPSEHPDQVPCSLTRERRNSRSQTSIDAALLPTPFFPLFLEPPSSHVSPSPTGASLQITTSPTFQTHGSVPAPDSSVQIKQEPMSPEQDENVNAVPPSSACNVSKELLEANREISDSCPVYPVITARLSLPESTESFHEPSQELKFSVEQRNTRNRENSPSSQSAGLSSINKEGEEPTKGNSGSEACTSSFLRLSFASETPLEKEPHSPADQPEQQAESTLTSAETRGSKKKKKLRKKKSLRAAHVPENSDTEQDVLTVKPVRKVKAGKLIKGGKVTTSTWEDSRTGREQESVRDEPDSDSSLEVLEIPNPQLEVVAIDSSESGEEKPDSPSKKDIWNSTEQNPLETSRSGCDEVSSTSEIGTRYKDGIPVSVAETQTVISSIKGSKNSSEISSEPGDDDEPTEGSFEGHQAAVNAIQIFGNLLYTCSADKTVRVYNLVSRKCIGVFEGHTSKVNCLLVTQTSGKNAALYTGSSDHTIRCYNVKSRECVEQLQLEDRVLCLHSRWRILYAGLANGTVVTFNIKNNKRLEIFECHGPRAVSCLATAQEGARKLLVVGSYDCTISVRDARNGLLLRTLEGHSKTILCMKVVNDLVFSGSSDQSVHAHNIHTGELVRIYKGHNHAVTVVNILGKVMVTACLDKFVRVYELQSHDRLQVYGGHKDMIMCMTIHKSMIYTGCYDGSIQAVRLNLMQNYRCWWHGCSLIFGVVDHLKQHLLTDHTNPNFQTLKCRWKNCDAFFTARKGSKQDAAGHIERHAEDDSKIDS

Compound: Cc1cc(ccc1-c1ccccc1)C(=O)N1CCCN(CC1)C(=O)CCl [compound 10]
Assay: probe-labelled cysteine peptide fold change vs DMSO (competition) (log2 fold change); higher = less target engagement (more negative = stronger competition)
Conditions: 50 µM; THP-1; incubation time: 4 h
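Note: competitive profiling in live THP-1 cells: cysteine peptides tagged with an iodoacetamide desthiobiotin (IA-DTB) probe, intensity after compound treatment relative to DMSO-treated cells.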

Target | probe-labelled cysteine peptide fold change
ZNF592_Q92610_790_ENCLHYAR (UniProt Q92610) | 0.121
ZMYND11_Q15326_249+258_DTCHELDELQLCK (UniProt Q15326) | -0.0828
ZFR_Q96KR1_844+856_CAVSEAAIILNSCVEPK (UniProt Q96KR1) | 0.0996
ZMYM3_Q14202_968_ASSDLCDLVSNQSAEGLLEDCDLFGPAR (UniProt Q14202) | -0.386
ZFP64_Q9NPA5_196_CHTGVKPYK (UniProt Q9NTW7) | -0.0402
ZNF512_Q96ME7_540_NNEELVVSASCK (UniProt Q96ME7) | 0.0373
ZFYVE1_Q9HBF4_71_LKPGHVPYCDLCK (UniProt Q9HBF4) | -0.684
ZNF618_Q5T7W0_635+638_CSACALNSVVQSVLSK (UniProt Q5T7W0) | 0.166
ZNF579_Q8NAF0_250_AHPCLRPEGEQEGEGGPPPRPK (UniProt Q8NAF0) | -0.0403
ZMYND8_Q9ULU4_130_LTSEPEGDWFCPECEK (UniProt Q9ULU4) | -0.255
ZNF638_Q14966_428+431_IFPHLCSLCNVECSHLK (UniProt Q14966) | 0.402
ZFP36L2_P47974_212_CHFIHNADER (UniProt P47974) | 0.376
ZNF195_O14628_195_DWESLDECK (UniProt O14628) | -0.776
ZNF451_Q9Y4E5_959_DAADFAICMHAGR (UniProt Q9Y4E5) | 0.21
ZNF691_Q5VV52_260_THTGERPYECTECGR (UniProt Q5VV52) | 1.19
ZFPL1_O95159_35_CIVQSYLQWLQDSDYNPNCR (UniProt O95159) | -0.178
ZNF638_Q14966_1156_ATCDSDFAVETLELETQGEEVK (UniProt Q14966) | 0.513
ZMYND8_Q9ULU4_94_NDFYCWVCHR (UniProt Q9ULU4) | 0.0284

Target | probe-labelled cysteine peptide fold change
ZNF316_A6NFI3_920_THTGERPYACANCGR (UniProt A6NFI3) | 0.0601
ZNF592_Q92610_353_SICSDSSSK (UniProt Q92610) | -0.139
ZMPSTE24_O75844_324_QGCKNEEVLAVLGHELGHWK (UniProt O75844) | -0.857
ZFR_Q96KR1_991_GSPGLLDPCEK (UniProt Q96KR1) | 0.343
ZNF143_P52747_299+304_CSEDNCTK (UniProt P52747) | -0.18
ZMYM3_Q14202_1106_IKEDILACSAAELNYGLAQFVR (UniProt Q14202) | -0.268
ZNF384_Q8TF68_408_CHNCHR (UniProt Q8TF68) | 0.173
ZNF280C_Q8ND82_388_ICELSFETEHILLQHMK (UniProt Q8ND82) | 0.0405
ZNF512B_Q96KM6_6_TDPFCVGGR (UniProt Q96KM6) | 0.0733
ZMYND11_Q15326_347_ACDELELHQR (UniProt Q15326) | 0.143
ZNF106_Q9H2Y7_1238_EISDSCPVYPVITAR (UniProt Q9H2Y7) | -0.154
ZNF106_Q9H2Y7_1131_IQILQGLQETYEPSEHPDQVPCSLTR (UniProt Q9H2Y7) | -0.196
ZMYM3_Q14202_1326_SCIAESPLWYSVIPMDR (UniProt Q14202) | 0.274
ZNF330_Q9Y3S2_192+194_ACFCDDHTR (UniProt Q9Y3S2) | -0.145
ZMYM4_Q5VZL5_1264_SDPLGSTQDHALSQESSEPGCR (UniProt Q5VZL5) | -0.376
ZFPL1_O95159_230_DDDRTPGLHGDCDDDK (UniProt O95159) | -0.37
ZNF638_Q14966_428_IFPHLCSLCNVECSHLK (UniProt Q14966) | 0.294
